Data as given in PubChem BioAssay AID720505 (Drosophila RNAi Screening Center, 2013).
The deposit covers about 20,000 reagents; this is a random part of those with a known target gene and a result. Over the whole deposit, about 2,100 (10%) got an active call. 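Raw plate signals without normalisation; calls rest on control-based scores that were not deposited; replicate 2 separates called from uncalled poorly.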 The numbers tell different reagents against one gene apart. Not given: the amount of reagent, the time to read-out.

Aim: 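Genes needed for store-operated calcium entry in fly cells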 (primary screen)
Cell system: Drosophila S2R+ cells
Knock-down reagent: long dsRNA against Drosophila genes
Treatment: thapsigargin (2 µM) in calcium-free buffer to empty internal stores, then 2 mM calcium added back
Measured: 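Stores emptied by 2 µM thapsigargin without calcium, then 2 mM calcium re-added; fluo-4 fluorescence followed by FLIPR in 384-well plates, per-well averaged endpoint, raw; two screen passes, some wells retested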
Reading the numbers: calcium signal and retest calcium signal: higher = more calcium entry after store depletion
Call rule: 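Knock-downs counted as hits when calcium entry dropped relative to STIM1 positive and Rho1 negative controls present on each plate; roughly 1500 genes called, with reductions of differing size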
Meaning of the calls: active = called as lowering calcium entry; inactive = not called

gene knocked down	reagent	calcium signal, replicate 1	calcium signal, replicate 2	retest calcium signal, replicate 1	retest calcium signal, replicate 2	Outcome
Pitslre (GeneID 40292)	1	64.6	90.4			active
Pitslre (GeneID 40292)	2	74.7	114			inactive
CtsL4 (GeneID 34401)	1	165	133			inactive
CG16723 (GeneID 42781)	1	141	99.4			inactive
FANCI (GeneID 35895)	1	106	90.2			inactive
Cyp12e1 (GeneID 41272)	1	160	111			inactive
alpha-Spec (GeneID 38231)	1	158	110			inactive
Argk2 (GeneID 39040)	1	93.7	85.9			inactive
Argk2 (GeneID 39040)	2	101	145			inactive
CG31735 (GeneID 318922)	1	189	127			inactive
Lrp4 (GeneID 32552)	1	200	131			inactive
CG10265 (GeneID 36676)	1	155	159			inactive
CG10265 (GeneID 36676)	2	233	104			inactive
CG6005 (GeneID 42279)	1	159	188			inactive
CG8065 (GeneID 39186)	1	76.1	92.9			active
CG11085 (GeneID 32213)	1	90.2	116			inactive
CG11085 (GeneID 32213)	2	131	108			inactive
CG3906 (GeneID 37721)	1	162	102			inactive
BaraC (GeneID 246528)	1	60.5	4691			active
ssx (GeneID 31086)	1	120	151			inactive
CG6154 (GeneID 43184)	1	275	110			inactive
Diedel3 (GeneID 50358)	1	110	90.4			inactive
CG32024 (GeneID 317828)	1	57.7	243			active
hiro (GeneID 38083)	1	129	81.5			inactive
B9d1 (GeneID 41888)	1	129	110			inactive
ftz (GeneID 40834)	1	88.1	129			inactive
CG10132 (GeneID 35239)	1	126	105			inactive
Cyp4d21 (GeneID 34036)	1	150	198			inactive
Vsx1 (GeneID 31470)	1	76.4	119	126	4167	active
Vsx1 (GeneID 31470)	2	169	157			inactive
Vsx1 (GeneID 31470)	3	114	129			inactive
CG11076 (GeneID 43830)	1	81.5	136			inactive
l(2)09851 (GeneID 46662)	1	200	142			inactive
wwk (GeneID 34886)	1	86.6	148			inactive
CG33476 (GeneID 2768727)	1	114	159			inactive
Pcyt1 (GeneID 117353)	1	164	142			inactive
CG14238 (GeneID 43195)	1	107	85.2			inactive
Gr64a (GeneID 117481)	1	104	93.8			inactive
CG42383 (GeneID 37897)	1	102	108			inactive
GstE3 (GeneID 37108)	1	196	163			inactive
CG11151 (GeneID 32335)	1	93.2	103			inactive
CG4884 (GeneID 43357)	1	114	91.8			inactive
CG15322 (GeneID 33012)	1	194	109			inactive
CG15322 (GeneID 33012)	2	93.8	117			inactive
alpha-Est5 (GeneID 40905)	1	98	117			inactive
Jhedup (GeneID 36779)	1	112	122			inactive
nrv3 (GeneID 35408)	1	136	159			inactive
CG12170 (GeneID 40692)	1	148	136	124	101	inactive
Dsor1 (GeneID 31872)	1	90.4	103			inactive
Ssdp (GeneID 42177)	1	170	169			inactive
CG2617 (GeneID 35331)	1	63.1	126			active
CG30089 (GeneID 36736)	1	123	144	95.8	103	inactive
CG30089 (GeneID 36736)	2	38.8	111			active
CG30089 (GeneID 36736)	3	128	136			inactive
CG30089 (GeneID 36736)	4	98.4	146			inactive
CG30089 (GeneID 36736)	5	61.4	194			inactive
eff (GeneID 41785)	1	122	149			inactive
CG12828 (GeneID 5740660)	1	140	176			inactive
CG33140 (GeneID 35642)	1	141	109			inactive
CG4596 (GeneID 41312)	1	164	81.8			inactive
NimA (GeneID 318930)	1	105	95			inactive
NimA (GeneID 318930)	2	84.9	231			inactive
vito (GeneID 326214)	1	145	109			inactive
TwdlD (GeneID 43210)	1	110	119			inactive
betaCOP (GeneID 32820)	1	123	115			inactive
Pi4KIIIalpha (GeneID 31247)	1	84.2	127			inactive
CG34193 (GeneID 5740572)	1	136	112			inactive
Ccp84Ab (GeneID 40824)	1	105	158			inactive
Orco (GeneID 40650)	1	152	155			inactive
CG15458 (GeneID 50124)	1	79.4	101			inactive
CG7829 (GeneID 43522)	1	172	190			inactive
lncRNA:CR42735 (retired record) (GeneID 14462711)	1	96.3	154			inactive
mil (GeneID 43343)	1	50.3	97.8			active
CG8745 (GeneID 39530)	1	75.9	83.2			inactive
CG8745 (GeneID 39530)	2	78.7	66.9			inactive
CG8745 (GeneID 39530)	3	135	176			inactive
rad (retired record) (GeneID 32251)	1					inactive
rad (retired record) (GeneID 32251)	2	112	84.5	6552	84.3	inactive
rad (retired record) (GeneID 32251)	3	104	85.3			inactive
rad (retired record) (GeneID 32251)	4	85.5	84.9			inactive
CG13310 (GeneID 39007)	1	90.3	86.8			inactive
CG8097 (GeneID 32495)	1	87.8	125			inactive
CG31820 (GeneID 318961)	1	86.2	85			inactive
